Measured values reported in paper PMC4455107.
No constants are given. Whether binding was seen depends on the method and setting. Binding seen in cells or lysates may run through a third protein. Here binding means that the protein was enriched with, or labelled near, the bait; the list need not be complete. Sequences can lack the tags named with a protein.

The chains behind the UniProt entries cited, without tags or fusion partners.
UniProt Q01650: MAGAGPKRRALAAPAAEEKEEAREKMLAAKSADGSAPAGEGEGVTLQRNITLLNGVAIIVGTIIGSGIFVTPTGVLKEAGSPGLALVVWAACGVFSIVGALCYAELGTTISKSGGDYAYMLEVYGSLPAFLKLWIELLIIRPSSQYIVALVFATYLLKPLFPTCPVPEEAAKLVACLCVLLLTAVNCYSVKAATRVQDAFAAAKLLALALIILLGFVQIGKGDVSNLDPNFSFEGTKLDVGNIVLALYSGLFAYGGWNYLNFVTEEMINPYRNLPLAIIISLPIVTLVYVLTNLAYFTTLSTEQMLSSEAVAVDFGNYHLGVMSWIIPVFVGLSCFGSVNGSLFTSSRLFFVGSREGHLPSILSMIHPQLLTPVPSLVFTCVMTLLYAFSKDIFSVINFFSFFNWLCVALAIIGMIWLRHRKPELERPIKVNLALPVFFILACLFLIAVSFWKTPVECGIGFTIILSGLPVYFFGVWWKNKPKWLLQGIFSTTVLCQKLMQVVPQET

Molecular target: T1, HA-LAPTM4b (lysosomal-associated transmembrane protein 4b, 24-kDa isoform, wild type) (human) (UniProt Q86VI4)
T1 sequence: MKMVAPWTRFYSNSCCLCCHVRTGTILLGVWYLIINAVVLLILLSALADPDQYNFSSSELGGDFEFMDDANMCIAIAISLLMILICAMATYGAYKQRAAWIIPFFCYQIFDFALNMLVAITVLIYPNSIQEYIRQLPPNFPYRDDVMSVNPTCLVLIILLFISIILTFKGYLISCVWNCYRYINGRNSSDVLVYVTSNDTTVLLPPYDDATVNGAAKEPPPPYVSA
Experiment: affinity purification with mass spectrometry; HeLa cells transiently transfected with HA-LAPTM4b-WT for 48 h; lysis in 50 mM Hepes pH 7.5, 150 mM NaCl, 1% Triton X-100, 10% glycerol; IP with anti-HA agarose, 4 °C, 3 h; trypsin digest, shotgun LC-MS/MS

Row | binding | Substance
1 | binds | endogenous LAT1 (SLC7A5) (from UniProt Q01650 1-507)
2 | binds | endogenous 4F2hc/CD98 (SLC3A2) (from UniProt P08195 1-529)
